Numbering of substitutions follows the chain as printed. Names and notes keep the numbering of the source. No constants are given. Whether binding was seen depends on the method and setting. Some binding calls cover weakened binding; strength is not graded here. Tags and fused reporters may be left off the sequences shown. One block for each binder: values may come before it.
Experiments:
[1] = biological target: T1, Mre11-C terminal region fused to lexA-DBD (S. cerevisiae) (UniProt P32829); assay: two-hybrid
T1 sequence: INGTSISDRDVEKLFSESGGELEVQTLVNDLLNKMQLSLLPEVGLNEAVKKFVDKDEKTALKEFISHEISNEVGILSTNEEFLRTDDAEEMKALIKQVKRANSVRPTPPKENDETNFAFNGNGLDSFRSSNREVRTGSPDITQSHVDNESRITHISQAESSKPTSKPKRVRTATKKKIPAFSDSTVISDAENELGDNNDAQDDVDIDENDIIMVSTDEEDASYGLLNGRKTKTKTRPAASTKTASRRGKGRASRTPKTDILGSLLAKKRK

[2] = biological target: T2, Sgs1-Helicase core fused to lexA-DBD (S. cerevisiae) (UniProt P35187); assay: two-hybrid
T2 sequence: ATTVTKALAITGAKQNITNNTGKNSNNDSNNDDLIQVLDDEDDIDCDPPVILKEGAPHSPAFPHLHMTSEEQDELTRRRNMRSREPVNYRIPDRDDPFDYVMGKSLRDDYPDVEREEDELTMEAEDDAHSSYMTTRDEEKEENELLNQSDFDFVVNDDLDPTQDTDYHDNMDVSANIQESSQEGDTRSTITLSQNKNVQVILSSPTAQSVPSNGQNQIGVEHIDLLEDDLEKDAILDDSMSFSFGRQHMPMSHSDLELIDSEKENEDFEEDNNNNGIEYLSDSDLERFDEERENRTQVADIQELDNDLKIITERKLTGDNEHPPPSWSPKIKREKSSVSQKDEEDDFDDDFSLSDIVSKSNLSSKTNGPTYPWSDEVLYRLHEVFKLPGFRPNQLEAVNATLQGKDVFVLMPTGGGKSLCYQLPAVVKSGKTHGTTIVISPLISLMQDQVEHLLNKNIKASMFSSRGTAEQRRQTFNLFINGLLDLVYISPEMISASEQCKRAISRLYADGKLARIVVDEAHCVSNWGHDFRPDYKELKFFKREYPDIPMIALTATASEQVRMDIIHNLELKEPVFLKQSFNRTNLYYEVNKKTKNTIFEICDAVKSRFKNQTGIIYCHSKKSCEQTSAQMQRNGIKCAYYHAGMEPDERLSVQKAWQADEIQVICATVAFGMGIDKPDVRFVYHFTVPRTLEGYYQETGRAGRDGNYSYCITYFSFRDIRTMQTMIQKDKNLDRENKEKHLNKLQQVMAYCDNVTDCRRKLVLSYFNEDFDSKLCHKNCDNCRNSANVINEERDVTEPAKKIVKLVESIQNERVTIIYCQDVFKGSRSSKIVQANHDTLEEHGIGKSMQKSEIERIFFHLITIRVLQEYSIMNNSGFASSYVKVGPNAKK

binding [1]: binds | binding [2]: binds
B2: Nej1 V338A fused to HA-AD (protein, UniProt Q06148 1-342)
chain: MDSELKGQQLSDAEWCVKKINGEGNCLLLFLPMSSPTTIVMIVLVSLERLVPYVFKLSQTQLSQQCQSQGFTDSISLNLIKLKLMDILQAPQEINQIGLVDSNLVFSFDVSADITVSINSVPSHVTKDMFYMILQSLCMLLLKLVNLSTQYHYVQRDILNEKQKCLDFLLISLRDLDGGSKVISQWAPENSKNYESLQQCTDDDIIKKLLHKGKFQHQEFLADSLKTLLSLRNKFQDVSRFEESGELNKKERVRFPAVNHFYNDDFELQADPTNEARPNSRGKIKPKTDFKPKSRESSTSSQLRLENFSESEATPEKTKSSSSLVEEYPQKKRKFGKARIKN

binding [1]: binds | binding [2]: binds
B3: Nej1-2 (FGKV→AAAA) fused to HA-AD (protein, UniProt Q06148 1-342)
chain: B2 chain with F335A, G336A, K337A

Further lines, the binder ahead of its results:

B1: Nej1 (wild type) fused to HA-AD (protein, UniProt Q06148 1-342)
chain: B2 chain with A338V
binding [1]: binds | binding [2]: binds

B4: Nej1 F335A fused to HA-AD (protein, UniProt Q06148 1-342)
chain: B2 chain with F335A, A338V
binding [1]: binds | binding [2]: binds
